From PubChem BioAssay AID662 (National Center for Advancing Translational Sciences (NCATS), 2007) come the findings set out here.

Some of the results follow. The main result of the screen is listed elsewhere. These columns were measured beside it and carry no call. Compounds called inactive in the main read-out are mostly missing here. Potencies come from curve fits of mixed quality, noted in brackets.

This test can be described thus: Cell signaling CRE-BLA (Fsk stim). The note with it: CHO CRE-bla reporter (cAMP response element driving beta-lactamase), forskolin EC10, beta-lactamase ratio; measured here: 460 nm blue channel. Put shortly:
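CHO CRE-bla cells, overnight plating in Opti-MEM with 0.5% dialyzed FBS; cpd titration + EC10 NKH 477, 3 h 37 °C; CCF4 2 h RT; ex 405/em 460 vs 530 ratio → %Activity, AC50.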
Turning to `CCn1c(SCC(=O)Nc2ccc3c(c2)c2ccccc2n3CC)nnc1-c1cnccn1`, the AC50 (commonly the concentration at which the activity in the assay is half-maximal) is 12.6 µM [rising, partial curve]. In the case of `COC(=O)c1cc(OC)c(OC)cc1NC(=O)c1ccco1` it was 2 µM [rising, partial curve]. In the case of `CCN1CCN(c2ncc3c(n2)CC(c2ccc(OC)c(OC)c2)CC3=O)CC1` (stereo unspecified) it was 12.6 µM [rising, single point]. The figure for `Cc1c(Cc2ccccc2)c(=O)oc2c(CN(C)C)c(O)c(Cl)cc12` is 12.6 µM [rising, partial curve]; for `COc1cc(C2NC(=O)NC(C)=C2C(=O)OCc2ccc(C)cc2)cc(OC)c1O` (stereo unspecified) it is 12.6 µM [rising, single point]; for `CCn1ncc(Br)c1C(=O)Nc1sc2c(c1C(N)=O)CCC2` it is 2 µM [rising, full curve]. Consider `CCOC(=O)/C=C1\SCC(=O)N1Cc1nnc(-c2ccccc2Br)o1`, for which the half-maximal activity concentration (AC50) is 3.98 µM [falling, single point].

For `Cc1ccc(C)c(C(=O)N(Cc2nc(-c3ccc(Cl)cc3)no2)C(C)C)c1`, the AC50 was 20 µM [falling, single point].

With `COc1ccc(N2CSC3=C(C#N)C(c4cccc(OC)c4OC)CC(=O)N3C2)cc1` (stereo unspecified), the AC50 was 5.01 µM [rising, full curve]. For `COc1ccccc1-n1cc(C(=O)NCC(=O)N2CCN(c3ccccn3)CC2)c2ccccc2c1=O`, the half-maximal activity concentration (AC50) is 0.00316 µM [falling, full curve, poor fit]. For the molecule `COC(=O)C(NC=O)C(O)(Cc1ccccc1)C(F)(F)F` (stereo unspecified), the AC50 is 0.1 µM [falling, partial curve].

With `COc1ccc(-c2csc(N(CC3CCCO3)C(=O)c3ccco3)n2)cc1` (stereo unspecified), the half-maximal activity concentration (AC50) was 2.51 µM [falling, single point].

For `Cc1ccc(-n2c(C)nc3c(cnn3-c3ccc(F)cc3)c2=O)cc1`, the concentration at half-maximal activity (AC50) is 10 µM [falling, single point]. Turning to `CCOC(=O)c1cnc2c(Cl)c(Cl)ccc2c1N1CCN(C)CC1`, the AC50 was 10 µM [rising, single point]. The figure for `O=C(CCN1C(=O)C2CC=CCC2C1=O)N1CCN(c2ccccn2)CC1` (stereo unspecified) is 25.1 µM [rising, single point]; for `C[C@@H](CN1CCC(Cc2ccccc2)CC1)[C@@H](O)c1ccc(O)cc1` it is 15.8 µM [falling, partial curve, poor fit]; for `Cc1ccc2nc3c(cc(C#N)c(=O)n3CCN3CCOCC3)c(=O)n2c1` it is 10 µM [rising, partial curve]. In the case of `COc1ccc(OC)c(N2C(=O)C(Cl)=C(N3CCOCC3)C2=O)c1` it was 0.00316 µM [falling, full curve, poor fit]. The figure for `Fc1ccccc1N1CCN(c2nc3ccccc3n3nnnc23)CC1` is 1 µM [rising, full curve, poor fit]. Regarding `COc1ccc(N2CC(C(=O)NCCCN3CCOCC3)CC2=O)cc1` (stereo unspecified), the AC50 was 0.398 µM [rising, partial curve]. In the case of `C=CCOc1ccc2ccccc2c1CNc1ncn[nH]1` it was 2 µM [falling, full curve, poor fit]; in that of `CCOc1ccc(C2C=C(c3ccccc3)Nc3nnnn32)cc1` (stereo unspecified), 25.1 µM [rising, single point]; in that of `COc1cc(C(=O)NC2CC3CCCC(C2)N3CC(=O)Nc2ccccc2)cc(OC)c1OC` (stereo unspecified), 3.98 µM [rising, partial curve].

In the case of `CCNc1ncc2nc(-c3cc(F)cc(F)c3)c(=O)n(-c3ccccc3)c2n1`, the AC50 was 2.51 µM [rising, full curve]. The figure for `Clc1cccc2sc(N3CCCCC3)nc12` is 31.6 µM [falling, single point]; for `CCOC(=O)c1cccc(NC(=O)CN(c2ccc(C)cc2)S(=O)(=O)c2c(C)n[nH]c2C)c1` it is 12.6 µM [rising, single point]. Regarding `Cc1ccc(-c2nn3c(C)nnc3s2)cc1NC(=O)c1ccc(OC(C)C)cc1`, the concentration at half-maximal activity (AC50) was 7.94 µM [rising, partial curve]. The figure for `COc1cccc(-c2nccc(NCc3cnc(C)cn3)n2)c1` is 10 µM [rising, partial curve]; for `Cc1ccc(OCc2nnc(SCC(=O)N3CCOCC3)n2C)cc1` it is 0.631 µM [rising, partial curve]; for `O=c1cc(-c2cccc3ccccc23)[nH][nH]1` it is 10 µM [falling, partial curve]. In the case of `O=C(CSc1nnc(-c2ccco2)n1-c1ccccc1)N1CCN(C(=O)c2ccco2)CC1` it was 5.01 µM [falling, single point]; in that of `Cc1cc(C)c(C#N)c(SCS(=O)Cc2ccccc2)n1` (stereo unspecified), 12.6 µM [rising, single point]; in that of `COCCn1c(=S)[nH]c2cc(C(=O)N3CCN(Cc4ccc5c(c4)OCO5)CC3)ccc2c1=O`, 7.94 µM [rising, partial curve, poor fit]. The figure for `CCOC(=O)C1=C(O)CSC1=Nc1cccc(Cl)c1` is 10 µM [rising, partial curve].

In the case of `CCOC(=O)c1sc(NS(=O)(=O)c2ccc(NC(C)=O)cc2)nc1C`, the half-maximal activity concentration (AC50) is 25.1 µM [falling, single point].

On to `CCOC(=O)C1CCCN(C(=O)c2sc3nc(-c4ccccc4)cn3c2C)C1` (stereo unspecified), for which the half-maximal activity concentration (AC50) is 15.8 µM [rising, single point].

Take `CCOC(=O)CSC(C)C(=O)Nc1nnc(C(C)C)s1` (stereo unspecified): the AC50 was 7.94 µM [rising, partial curve]. In the case of `CCc1ccc2[nH]c(=O)c(C(c3nnnn3CCOC)N3CCN(c4ccccc4)CC3)cc2c1` (stereo unspecified) it was 0.0126 µM [falling, full curve]; in that of `CCc1c(C)nc(N)n2c(SCC(=O)N3CCN(c4ccccc4)CC3)nnc12`, 0.00398 µM [falling, full curve, poor fit].

With `COc1ccc(-c2noc(CSc3nc(N)c(-c4ccccc4)c(=O)[nH]3)n2)cc1`, the half-maximal activity concentration (AC50) was 10 µM [rising, partial curve].

As for `Nc1nc(-c2ccccc2)cc(N2CCCCC2)n1`, the concentration at half-maximal activity (AC50) is 0.631 µM [falling, full curve]. In the case of `C(=C\c1ccccc1)/CSc1nnc(-c2ccccn2)n1Cc1ccco1` it was 0.00398 µM [falling, full curve, poor fit]. `CCOC(=O)c1cccc(NC(=O)C(C)N2C(=O)c3ccccc3C2=O)c1` (stereo unspecified): the AC50 was 15.8 µM [falling, single point]. As for `CC(C)=CCC1=C(OCC(=O)O)C(=O)c2ccccc2C1=O`, the AC50 was 5.01 µM [rising, single point]. In the case of `COc1cccc(-c2cc(C(=O)N3C(C)CCCC3C)no2)c1` (stereo unspecified) it was 0.1 µM [falling, full curve, poor fit].

Consider `CC12CC(c3ccccc3O1)N(C(=O)c1ccco1)C(=O)N2c1ccccc1` (stereo unspecified), for which the concentration at half-maximal activity (AC50) is 0.00316 µM [falling, full curve, poor fit]. The figure for `COc1ccccc1Nc1nc(N)nc(CSc2nccc(C)n2)n1` is 10 µM [rising, partial curve]; for `Cc1ccc(OCc2nnc(SCC(=O)Nc3ccc4c(c3)OCCO4)n2Cc2ccco2)cc1` it is 25.1 µM [falling, single point]. On to `Cc1cc(=O)[nH]c(N2CCN(C(c3ccccc3)c3ccccc3)CC2)n1`, for which the AC50 is 3.16 µM [falling, partial curve]. For `COc1ccc(/C(O)=C(\C#N)c2nc3ccccc3n2C)cc1OC`, the half-maximal activity concentration (AC50) is 0.251 µM [rising, full curve]. Take `CCn1c(SCC(=O)Nc2cc(C)c(Cl)cc2OC)nnc1-c1ccco1`: the AC50 was 12.6 µM [rising, partial curve]. With `COC(=O)c1[nH]c2c(c1C)C(=O)CC(c1cccs1)C2` (stereo unspecified), the AC50 was 3.16 µM [rising, full curve]. In the case of `O=C(O)c1cc(NCc2c(F)cccc2Cl)ccc1N1CCOCC1` it was 3.16 µM [rising, single point].

For `Cc1nn(Cc2ccc(Cl)c(Cl)c2)c(C)c1NC(=O)c1cc(CC(C)C)on1`, the AC50 was 7.94 µM [falling, partial curve].

Regarding `CNc1ncnc2ccc(-c3cccc(NS(C)(=O)=O)c3)cc12`, the concentration at half-maximal activity (AC50) is 7.94 µM [rising, partial curve].

Take `COc1cc(-c2nc(N)n[nH]2)cc(OC)c1OC`: the half-maximal activity concentration (AC50) was 25.1 µM [rising, single point].

Consider `COc1ccc(-c2nc3cnc(N4CCN(C)CC4)nc3n(CCC#N)c2=O)cc1`, for which the AC50 was 10 µM [rising, partial curve]. In the case of `O=c1ccc(S(=O)(=O)N2CCC(Cc3ccccc3)CC2)c[nH]1` it was 0.02 µM [falling, full curve, poor fit]; in that of `Cc1ccccc1NC(=O)c1nc[nH]c1C(=O)NCc1ccccc1`, 10 µM [rising, partial curve]. Turning to `Cc1ccccc1N1C(=O)CC(N(O)c2ccccc2)C1=O` (stereo unspecified), the half-maximal activity concentration (AC50) was 15.8 µM [falling, partial curve]. Turning to `COc1ccc(-n2c(CNC(=O)c3cc(OC)c(OC)c(OC)c3)n[nH]c2=S)cc1`, the AC50 is 31.6 µM [falling, single point]. The figure for `COc1ccc(OC)c(C(=O)CSc2nnc(Cc3cccs3)n2C)c1` is 25.1 µM [rising, partial curve]; for `CC1C(=O)C(C)C(c2ccc3c(c2)OCO3)NC1c1ccc2c(c1)OCO2` (stereo unspecified) it is 6.31 µM [falling, partial curve].

As to `O=C(C1COc2ccccc2O1)N1CCN(c2ccccc2F)CC1` (stereo unspecified), the AC50 was 0.00398 µM [falling, full curve, poor fit].

For `COCCOC(=O)c1[nH]c2c(c1C)C(=O)CC(c1ccco1)C2` (stereo unspecified), the concentration at half-maximal activity (AC50) was 10 µM [rising, partial curve]. The figure for `CCOC(=O)N1CCC(NC(=O)c2cc(-c3ccc(F)cc3)[nH]c2C)CC1` is 0.0501 µM [rising, partial curve, poor fit].
